Measured values from the supplement of paper PMC12067093, “Discovery and optimisation of a covalent ligand for TRIM25 and its application to targeted protein ubiquitination” (Chemical Science, 2025).
Some of the results follow.

Chains of the proteins cited; added tags and fusions are not shown. Lines headed by an entry give the natural chain unless they say otherwise; changes in a name come on top.
UniProt O75376, whole entry, looked up: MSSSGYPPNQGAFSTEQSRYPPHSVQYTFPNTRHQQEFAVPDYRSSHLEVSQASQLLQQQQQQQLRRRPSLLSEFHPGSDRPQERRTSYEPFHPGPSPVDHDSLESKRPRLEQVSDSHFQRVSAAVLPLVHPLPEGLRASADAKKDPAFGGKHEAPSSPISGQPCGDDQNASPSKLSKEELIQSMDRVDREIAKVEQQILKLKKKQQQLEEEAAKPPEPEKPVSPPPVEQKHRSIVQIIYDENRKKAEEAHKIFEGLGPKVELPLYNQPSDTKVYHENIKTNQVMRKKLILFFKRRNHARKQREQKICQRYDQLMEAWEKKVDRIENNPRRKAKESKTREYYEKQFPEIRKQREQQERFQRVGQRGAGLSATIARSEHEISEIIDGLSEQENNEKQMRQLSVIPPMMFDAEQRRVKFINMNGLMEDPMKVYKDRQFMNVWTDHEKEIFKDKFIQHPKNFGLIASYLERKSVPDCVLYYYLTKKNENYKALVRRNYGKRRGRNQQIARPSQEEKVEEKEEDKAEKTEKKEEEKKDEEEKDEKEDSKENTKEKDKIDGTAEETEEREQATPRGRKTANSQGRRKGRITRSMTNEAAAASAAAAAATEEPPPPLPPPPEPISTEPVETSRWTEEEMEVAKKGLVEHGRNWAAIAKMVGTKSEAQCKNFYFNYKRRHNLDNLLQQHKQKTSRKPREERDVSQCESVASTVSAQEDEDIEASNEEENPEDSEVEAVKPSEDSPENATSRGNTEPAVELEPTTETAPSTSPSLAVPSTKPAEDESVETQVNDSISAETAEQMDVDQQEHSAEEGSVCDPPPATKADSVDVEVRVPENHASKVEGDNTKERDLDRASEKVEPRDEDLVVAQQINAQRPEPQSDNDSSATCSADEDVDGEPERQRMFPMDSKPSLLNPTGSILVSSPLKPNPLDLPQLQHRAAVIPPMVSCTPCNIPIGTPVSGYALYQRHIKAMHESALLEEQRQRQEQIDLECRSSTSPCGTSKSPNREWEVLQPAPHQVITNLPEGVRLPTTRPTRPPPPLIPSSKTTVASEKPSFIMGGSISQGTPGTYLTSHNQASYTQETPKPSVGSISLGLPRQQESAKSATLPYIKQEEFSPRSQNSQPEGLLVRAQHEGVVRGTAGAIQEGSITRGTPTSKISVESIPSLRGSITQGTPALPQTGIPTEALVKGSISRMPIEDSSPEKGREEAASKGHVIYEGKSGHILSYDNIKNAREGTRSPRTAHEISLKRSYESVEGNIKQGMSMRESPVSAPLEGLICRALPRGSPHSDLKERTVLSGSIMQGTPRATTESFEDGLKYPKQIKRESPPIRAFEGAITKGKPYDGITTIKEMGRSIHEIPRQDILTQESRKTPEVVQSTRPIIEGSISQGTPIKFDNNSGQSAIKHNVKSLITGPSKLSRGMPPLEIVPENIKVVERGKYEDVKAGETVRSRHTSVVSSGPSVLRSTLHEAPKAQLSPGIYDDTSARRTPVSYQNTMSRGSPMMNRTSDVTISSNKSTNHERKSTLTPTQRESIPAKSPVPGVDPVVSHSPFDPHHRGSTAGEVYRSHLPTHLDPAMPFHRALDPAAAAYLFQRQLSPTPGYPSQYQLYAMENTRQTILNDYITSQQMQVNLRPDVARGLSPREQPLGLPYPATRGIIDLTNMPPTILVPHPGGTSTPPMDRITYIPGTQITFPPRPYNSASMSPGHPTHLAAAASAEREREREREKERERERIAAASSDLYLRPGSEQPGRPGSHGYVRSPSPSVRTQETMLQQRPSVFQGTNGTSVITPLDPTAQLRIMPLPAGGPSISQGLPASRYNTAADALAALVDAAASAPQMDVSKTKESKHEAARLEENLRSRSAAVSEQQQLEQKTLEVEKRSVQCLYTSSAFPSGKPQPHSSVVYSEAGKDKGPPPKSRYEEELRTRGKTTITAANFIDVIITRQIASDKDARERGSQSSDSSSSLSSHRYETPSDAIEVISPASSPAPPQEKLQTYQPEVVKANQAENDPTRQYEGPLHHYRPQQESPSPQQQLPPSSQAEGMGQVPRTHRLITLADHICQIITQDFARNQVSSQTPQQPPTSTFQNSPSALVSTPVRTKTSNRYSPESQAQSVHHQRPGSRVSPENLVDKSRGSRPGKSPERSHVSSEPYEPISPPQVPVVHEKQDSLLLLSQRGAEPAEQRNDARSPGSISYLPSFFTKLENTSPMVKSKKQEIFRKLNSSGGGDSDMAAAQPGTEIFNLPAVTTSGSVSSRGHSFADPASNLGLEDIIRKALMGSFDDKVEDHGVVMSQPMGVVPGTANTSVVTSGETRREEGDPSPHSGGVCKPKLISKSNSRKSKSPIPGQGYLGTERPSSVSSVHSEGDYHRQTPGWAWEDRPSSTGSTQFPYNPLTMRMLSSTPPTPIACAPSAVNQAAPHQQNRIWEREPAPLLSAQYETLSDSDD
UniProt Q16718, whole entry, looked up: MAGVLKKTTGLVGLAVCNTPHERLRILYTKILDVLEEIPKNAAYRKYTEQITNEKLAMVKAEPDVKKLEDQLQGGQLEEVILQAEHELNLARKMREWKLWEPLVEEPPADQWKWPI
UniProt Q9NQR4: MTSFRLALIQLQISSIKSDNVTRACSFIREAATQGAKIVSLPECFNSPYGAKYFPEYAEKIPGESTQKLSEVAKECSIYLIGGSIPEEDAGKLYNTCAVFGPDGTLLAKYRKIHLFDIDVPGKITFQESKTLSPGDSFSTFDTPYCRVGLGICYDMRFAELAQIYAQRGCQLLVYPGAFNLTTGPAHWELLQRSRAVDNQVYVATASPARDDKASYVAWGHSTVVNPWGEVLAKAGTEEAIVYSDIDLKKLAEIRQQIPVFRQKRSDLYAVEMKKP
UniProt Q9NX24: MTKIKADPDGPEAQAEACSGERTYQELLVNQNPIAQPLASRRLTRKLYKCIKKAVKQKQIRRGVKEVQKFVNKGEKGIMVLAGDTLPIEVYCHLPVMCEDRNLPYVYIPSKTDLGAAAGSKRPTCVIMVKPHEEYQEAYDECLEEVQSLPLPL
UniProt P14543: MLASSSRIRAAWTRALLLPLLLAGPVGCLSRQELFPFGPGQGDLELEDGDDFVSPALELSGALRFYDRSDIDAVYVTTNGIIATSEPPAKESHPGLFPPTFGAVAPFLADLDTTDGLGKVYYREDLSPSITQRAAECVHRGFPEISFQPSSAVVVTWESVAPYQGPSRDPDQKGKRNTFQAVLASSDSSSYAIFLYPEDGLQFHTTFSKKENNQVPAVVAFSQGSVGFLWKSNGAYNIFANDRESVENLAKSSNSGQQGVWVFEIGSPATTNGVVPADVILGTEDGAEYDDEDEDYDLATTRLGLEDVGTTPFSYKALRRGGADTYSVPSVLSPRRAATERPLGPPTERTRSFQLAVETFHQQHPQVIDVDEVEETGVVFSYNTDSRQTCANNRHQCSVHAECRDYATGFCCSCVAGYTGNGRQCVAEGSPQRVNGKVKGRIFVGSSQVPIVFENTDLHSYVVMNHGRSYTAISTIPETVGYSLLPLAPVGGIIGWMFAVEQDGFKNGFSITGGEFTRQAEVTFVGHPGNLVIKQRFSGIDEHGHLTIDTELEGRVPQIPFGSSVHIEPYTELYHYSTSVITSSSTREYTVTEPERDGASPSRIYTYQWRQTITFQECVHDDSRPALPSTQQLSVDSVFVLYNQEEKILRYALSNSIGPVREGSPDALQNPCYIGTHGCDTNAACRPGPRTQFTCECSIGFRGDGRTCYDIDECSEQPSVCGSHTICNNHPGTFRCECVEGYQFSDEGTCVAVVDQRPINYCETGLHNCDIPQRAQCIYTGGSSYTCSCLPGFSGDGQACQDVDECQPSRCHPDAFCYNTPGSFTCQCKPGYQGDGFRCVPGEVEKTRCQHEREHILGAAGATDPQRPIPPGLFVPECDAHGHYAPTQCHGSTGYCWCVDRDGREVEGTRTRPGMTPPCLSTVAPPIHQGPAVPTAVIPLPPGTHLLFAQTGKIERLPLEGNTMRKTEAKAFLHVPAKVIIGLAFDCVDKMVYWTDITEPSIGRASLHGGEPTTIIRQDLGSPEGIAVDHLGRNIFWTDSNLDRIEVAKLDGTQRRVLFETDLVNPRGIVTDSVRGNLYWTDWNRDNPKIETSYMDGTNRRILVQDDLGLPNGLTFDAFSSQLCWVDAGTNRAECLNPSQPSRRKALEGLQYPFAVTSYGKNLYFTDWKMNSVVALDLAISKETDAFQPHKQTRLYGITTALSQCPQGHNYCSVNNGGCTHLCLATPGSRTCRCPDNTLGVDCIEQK
UniProt O43678, whole entry, looked up: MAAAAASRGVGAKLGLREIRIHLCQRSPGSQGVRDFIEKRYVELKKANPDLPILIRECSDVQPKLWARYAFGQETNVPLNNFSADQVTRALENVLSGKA
UniProt P28331, whole entry, looked up: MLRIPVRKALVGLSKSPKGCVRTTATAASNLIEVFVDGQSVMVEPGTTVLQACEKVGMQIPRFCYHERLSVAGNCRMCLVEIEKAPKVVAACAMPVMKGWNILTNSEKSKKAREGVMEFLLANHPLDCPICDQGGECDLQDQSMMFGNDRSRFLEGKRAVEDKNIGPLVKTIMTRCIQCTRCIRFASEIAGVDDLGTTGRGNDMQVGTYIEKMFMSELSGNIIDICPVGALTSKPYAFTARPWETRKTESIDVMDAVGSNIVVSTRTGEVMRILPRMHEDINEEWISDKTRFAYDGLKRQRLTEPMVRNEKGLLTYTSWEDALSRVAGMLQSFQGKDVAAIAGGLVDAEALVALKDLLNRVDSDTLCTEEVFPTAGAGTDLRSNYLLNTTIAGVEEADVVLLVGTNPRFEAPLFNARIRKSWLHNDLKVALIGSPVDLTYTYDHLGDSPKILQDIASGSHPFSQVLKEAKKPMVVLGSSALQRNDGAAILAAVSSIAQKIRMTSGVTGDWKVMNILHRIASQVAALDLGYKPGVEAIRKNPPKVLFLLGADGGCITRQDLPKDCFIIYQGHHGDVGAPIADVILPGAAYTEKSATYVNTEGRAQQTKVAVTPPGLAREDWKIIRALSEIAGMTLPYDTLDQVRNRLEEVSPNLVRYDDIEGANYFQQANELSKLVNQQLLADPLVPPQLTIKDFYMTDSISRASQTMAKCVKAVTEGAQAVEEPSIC
UniProt Q12986: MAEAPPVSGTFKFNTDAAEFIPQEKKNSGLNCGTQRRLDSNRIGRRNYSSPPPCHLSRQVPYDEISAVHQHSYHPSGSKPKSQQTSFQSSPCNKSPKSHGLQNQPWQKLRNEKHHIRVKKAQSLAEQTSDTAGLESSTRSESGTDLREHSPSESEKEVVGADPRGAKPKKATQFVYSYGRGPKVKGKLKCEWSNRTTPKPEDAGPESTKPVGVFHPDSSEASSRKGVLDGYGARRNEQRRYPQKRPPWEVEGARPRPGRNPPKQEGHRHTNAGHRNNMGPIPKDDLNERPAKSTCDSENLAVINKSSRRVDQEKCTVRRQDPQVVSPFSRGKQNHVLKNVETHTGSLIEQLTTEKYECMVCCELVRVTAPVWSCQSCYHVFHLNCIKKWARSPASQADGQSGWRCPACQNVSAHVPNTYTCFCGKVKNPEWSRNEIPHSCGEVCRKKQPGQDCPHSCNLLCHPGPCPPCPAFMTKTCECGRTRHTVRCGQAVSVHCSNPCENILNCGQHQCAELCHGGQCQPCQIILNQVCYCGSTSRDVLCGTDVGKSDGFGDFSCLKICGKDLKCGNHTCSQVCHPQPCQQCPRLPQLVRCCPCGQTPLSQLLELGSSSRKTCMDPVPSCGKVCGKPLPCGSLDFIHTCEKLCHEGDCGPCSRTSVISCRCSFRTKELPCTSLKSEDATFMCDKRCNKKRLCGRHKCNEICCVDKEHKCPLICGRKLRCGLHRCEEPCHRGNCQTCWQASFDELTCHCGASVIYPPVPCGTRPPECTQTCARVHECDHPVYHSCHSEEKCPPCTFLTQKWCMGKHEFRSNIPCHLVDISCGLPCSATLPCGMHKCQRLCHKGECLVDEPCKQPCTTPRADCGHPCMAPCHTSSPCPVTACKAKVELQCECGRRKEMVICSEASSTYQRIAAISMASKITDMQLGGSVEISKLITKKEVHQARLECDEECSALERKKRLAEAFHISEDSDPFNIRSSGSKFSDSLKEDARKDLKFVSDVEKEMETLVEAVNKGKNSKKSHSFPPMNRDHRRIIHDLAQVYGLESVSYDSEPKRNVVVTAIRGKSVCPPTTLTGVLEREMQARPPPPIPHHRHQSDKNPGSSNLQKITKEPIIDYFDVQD
UniProt Q15653: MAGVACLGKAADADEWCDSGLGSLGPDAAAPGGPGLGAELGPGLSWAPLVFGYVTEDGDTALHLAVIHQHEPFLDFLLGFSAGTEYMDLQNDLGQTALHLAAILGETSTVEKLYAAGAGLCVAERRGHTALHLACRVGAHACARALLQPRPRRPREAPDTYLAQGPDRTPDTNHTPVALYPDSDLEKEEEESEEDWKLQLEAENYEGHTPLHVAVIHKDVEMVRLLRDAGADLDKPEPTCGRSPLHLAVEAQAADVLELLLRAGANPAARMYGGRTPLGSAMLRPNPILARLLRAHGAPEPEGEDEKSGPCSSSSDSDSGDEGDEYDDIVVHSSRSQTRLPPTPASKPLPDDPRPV

Compound: CC1Cc2ccccc2N1C(=O)C1CCCN(C1)C(=O)CCl (mixture of isomers) [TRIM25 ligand 11 (diastereomer mixture)]
Assay: probe-labelled cysteine peptide fold change vs DMSO (competition) (log2 fold change); higher = less target engagement (more negative = stronger competition)
Details: THP-1, incubation time: 4 h
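Also: competitive chemoproteomic profiling in live THP-1 cells with an iodoacetamide desthiobiotin (IA-DTB) probe, comparing probe-labelled peptide intensities in compound-treated cells against DMSO-treated controls.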

| Target | probe-labelled cysteine peptide fold change (10 µM) | probe-labelled cysteine peptide fold change (50 µM) |
| --- | --- | --- |
| NDUFA8_P51970_46_EFMLCR (UniProt P51970) | -0.0141 | 0.185 |
| NDUFV1_P49821_206_GAGAYICGEETALIESIEGK (UniProt P49821) | -0.00957 | 0.00598 |
| NDUFS5_O43920_33_CHAFEK (UniProt O43920) | -0.112 | -0.0478 |
| NCOR1_O75376_2322_REEGDPSPHSGGVCKPK (UniProt O75376) | -0.0371 | -0.16 |
| NDUFA5_Q16718_17_KTTGLVGLAVCNTPHER (UniProt Q16718) | -0.288 | -0.321 |
| NFS1_Q9Y697_308_SGTVPTPLVVGLGAACEVAQQEMEYDHKR (UniProt Q9Y697) | -0.0111 | -0.089 |
| NIT2_Q9NQR4_153_VGLGICYDMR (UniProt Q9NQR4) | -0.261 | -1.18 |
| NEK4_P51957-2_463_DQDQVAGECIIEK (UniProt P51957) | -0.0844 | -0.354 |
| NHP2_Q9NX24_92_GIMVLAGDTLPIEVYCHLPVMCEDR (UniProt Q9NX24) | -0.387 | -0.298 |
| NDUFA11_Q86Y39_18_QYWDIPDGTDCHR (UniProt Q86Y39) | 0.1 | 0.372 |
| NEIL3_Q8TAT5_259_RPNCGQCHCR (UniProt Q8TAT5) | 0.0358 | 0.0612 |
| NID1_P14543_403_HQCSVHAECR (UniProt P14543) | -0.00392 | 0.0411 |
| NCL_P19338_543_EALNSCNK (UniProt P19338) | 0.013 | -0.0715 |
| NDUFA2_O43678_24_IHLCQR (UniProt O43678) | -0.147 | -0.162 |
| NFATC2_Q13469_355_HIYPAVEFLGPCEQGER (UniProt Q13469) | -0.239 | -0.213 |
| NCOR2_Q9Y618_1289_KGHVLSYEGGMSVTQCSK (UniProt Q9Y618) | 0.00374 | -0.119 |
| NEK9_Q8TD19_487_VAGPEVLEPMQLNFFLSNPVEQVSCGDNHVVVLTR (UniProt Q8TD19) | 0.0267 | 0.0157 |
| NDUFA10_O95299_253_CEVLQYSAR (UniProt O95299) | -0.0463 | -0.00882 |
| NFXL1_Q6ZNB6_713_SRPLGCLHPCILR (UniProt Q6ZNB6) | – | 0.0312 |
| NDUFS1_P28331_367_VDSDTLCTEEVFPTAGAGTDLR (UniProt P28331) | -0.0794 | -0.394 |

Copied from the list.
NID1_P14543_403_HQCSVHAECR (UniProt P14543) | probe-labelled cysteine peptide fold change (50 µM): 0.0411
NDUFA2_O43678_24_IHLCQR (UniProt O43678) | probe-labelled cysteine peptide fold change (10 µM): -0.147
NCOR1_O75376_2322_REEGDPSPHSGGVCKPK (UniProt O75376) | probe-labelled cysteine peptide fold change (10 µM): -0.0371

Further records:

| Target | probe-labelled cysteine peptide fold change (10 µM) | probe-labelled cysteine peptide fold change (50 µM) |
| --- | --- | --- |
| NIT2_Q9NQR4_170_GCQLLVYPGAFNLTTGPAHWELLQR (UniProt Q9NQR4) | -0.2 | -0.0477 |
| NELFB_Q8WX92_115_MPSLQPVVMCVMK (UniProt Q8WX92) | -0.277 | -0.284 |
| NECTIN2_Q92692_283_TDATLSCDVR (UniProt Q92692) | -0.0251 | 0.281 |
| NCOR2_Q9Y618_466_TVAECVLYYYLTK (UniProt Q9Y618) | -0.0974 | 0.221 |
| NDUFA10_O95299_112_HFPEAGIHYPDSTTGDGKPLATDYNGNCSLEK (UniProt O95299) | -0.0444 | -0.124 |
| NFX1_Q12986_901_EMVICSEASSTYQR (UniProt Q12986) | 0.177 | -0.0388 |
| NFIB_O00712_120_RIDCLR (UniProt O00712) | -0.0808 | -0.232 |
| NEDD4_P46934-4_4_ATCAVEVFGLLEDEENSR (UniProt P46934) | -0.669 | -0.509 |
| NFKBIE_O00221_457_GLMGISSTLCK (UniProt O00221) | -0.147 | 0.021 |
| NEK9_Q8TD19_715_PIFGSLHHVPDLSCR (UniProt Q8TD19) | 0.134 | -0.0999 |
| NCOR2_Q9Y618_866_SECTEEAEEGPAK (UniProt Q9Y618) | -0.0262 | 0.198 |
| NIFK_Q9BYG3_237_TVDSQGPTPVCTPTFLER (UniProt Q9BYG3) | 0.0598 | -0.143 |
| NDUFA10_O95299_183_QCVDHYNEVK (UniProt O95299) | 0.028 | 0.0116 |
| NDUFS1_P28331_75_LSVAGNCR (UniProt P28331) | 0.0407 | 0.114 |
| NCOA7_Q8NI08_618_EALDSSLESTLDNSCQGAQMDNK (UniProt Q8NI08) | 0.34 | -0.00884 |
| NFKBIB_Q15653_135_GHTALHLACR (UniProt Q15653) | 0.0835 | 0.216 |
| NFX1_Q12986_362_YECMVCCELVR (UniProt Q12986) | 0.202 | 0.158 |
| NCKIPSD_Q9NZQ3_429_CYLEELLHILTDADPEVCKK (UniProt Q9NZQ3) | -0.131 | -0.0929 |
| NFATC1_O95644_587_TLSLQVASNPIECSQR (UniProt O95644) | 0.128 | 0.223 |
